No constants are given. Whether binding was seen depends on the method and setting. For some of these results: In cells and extracts the contact can be indirect. Some entries that bind do so weakly or less than the wild type.

Amino acid sequences for entries named in this document (tags omitted). A change or cut given only in a name is not applied to a line headed by its entry.
UniProt Q00403: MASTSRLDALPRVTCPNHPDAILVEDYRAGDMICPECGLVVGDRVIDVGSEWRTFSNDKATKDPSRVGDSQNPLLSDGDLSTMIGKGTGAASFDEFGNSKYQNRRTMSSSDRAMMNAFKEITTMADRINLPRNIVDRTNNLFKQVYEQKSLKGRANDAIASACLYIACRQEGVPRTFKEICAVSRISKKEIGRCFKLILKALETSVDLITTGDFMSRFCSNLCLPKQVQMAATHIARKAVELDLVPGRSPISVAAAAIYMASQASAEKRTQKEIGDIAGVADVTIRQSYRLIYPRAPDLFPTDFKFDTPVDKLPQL
UniProt Q80A33: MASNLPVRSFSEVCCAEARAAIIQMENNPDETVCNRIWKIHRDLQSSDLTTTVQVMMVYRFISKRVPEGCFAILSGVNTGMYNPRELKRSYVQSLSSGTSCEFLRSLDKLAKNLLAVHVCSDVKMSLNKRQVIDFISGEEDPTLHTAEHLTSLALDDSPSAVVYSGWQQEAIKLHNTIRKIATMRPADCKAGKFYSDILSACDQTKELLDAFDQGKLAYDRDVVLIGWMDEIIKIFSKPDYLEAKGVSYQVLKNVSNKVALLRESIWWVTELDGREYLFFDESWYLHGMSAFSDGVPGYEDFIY

Experiment [1] concerns the target recombinant GST-TFIIB (UniProt Q00403). In words: co-precipitation with recombinant GST-TFIIB (Figure 9), as summed up in the description.
For experiment [2] the target is unchanged. Nature of the experiment: co-precipitation of 35S-labelled GFP-ML fragment with recombinant GST-TFIIB, autoradiography.
The target is the same in experiment [3]. Nature of the experiment: summary of the fragment experiments in the description.

“GFP-ML (247-304; C-terminal 57 AA) (from UniProt Q80A33 247-304)”: the binding result with recombinant GST-TFIIB [1] and in the experiment with recombinant GST-TFIIB [2] was “binds” in each case.

Consider “ML fragment of aa 249 to 304 (from UniProt Q80A33 249-304)”, for which the binding result with recombinant GST-TFIIB [3] and in the experiment with recombinant GST-TFIIB [1] was “binds” each time.
